This is one part of the list.
Columns and labels:
Assay in all cases: log2 fold change, soluble protein after heating vs DMSO (PISA); higher = thermal stabilisation; K562 lysate, 10 uM; active = over 0.2 and 3.5 SD of the protein, either way, in both replicates (recomputed)
alvocidib = compound: CN1CC[C@H](c2c(O)cc(O)c3c(=O)cc(-c4ccccc4Cl)oc23)[C@H](O)C1 [alvocidib]
Summary of the method: (§1)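 Pellets of K562 cells were dounce-homogenised in PBS pH 7.4 with 1 mM MgCl2, and the crude extract was held at 1 mg/mL protein for a 30 min treatment with 10 μM compound. Aliquots were heated for 3 min over 48°C-58°C and pooled before NP-40 was added to 0.5% at 4°C. The supernatant from 21,000xg for 90 min was quantified by TMTpro 16plex LC-MS/MS with channel sums equalised. Values are reported from duplicates as log-two fold change in thermal stability relative to solvent controls.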

Sequences of proteins named here, by UniProt entry; tags and fusion partners are left off. A change or cut given only in a name is not applied to a line headed by its entry.
UniProt O15554, whole entry, looked up: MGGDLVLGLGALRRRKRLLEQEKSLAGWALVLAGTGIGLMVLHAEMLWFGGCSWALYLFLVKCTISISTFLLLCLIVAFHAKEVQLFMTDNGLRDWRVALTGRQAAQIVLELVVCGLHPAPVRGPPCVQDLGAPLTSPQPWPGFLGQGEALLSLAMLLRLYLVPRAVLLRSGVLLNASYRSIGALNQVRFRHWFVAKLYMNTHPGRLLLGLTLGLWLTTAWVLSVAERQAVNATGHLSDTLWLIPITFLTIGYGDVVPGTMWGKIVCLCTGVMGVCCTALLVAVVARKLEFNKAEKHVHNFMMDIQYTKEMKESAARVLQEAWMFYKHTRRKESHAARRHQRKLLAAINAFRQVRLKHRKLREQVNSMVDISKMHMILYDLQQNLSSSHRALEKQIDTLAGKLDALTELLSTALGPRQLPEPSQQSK
UniProt P19823: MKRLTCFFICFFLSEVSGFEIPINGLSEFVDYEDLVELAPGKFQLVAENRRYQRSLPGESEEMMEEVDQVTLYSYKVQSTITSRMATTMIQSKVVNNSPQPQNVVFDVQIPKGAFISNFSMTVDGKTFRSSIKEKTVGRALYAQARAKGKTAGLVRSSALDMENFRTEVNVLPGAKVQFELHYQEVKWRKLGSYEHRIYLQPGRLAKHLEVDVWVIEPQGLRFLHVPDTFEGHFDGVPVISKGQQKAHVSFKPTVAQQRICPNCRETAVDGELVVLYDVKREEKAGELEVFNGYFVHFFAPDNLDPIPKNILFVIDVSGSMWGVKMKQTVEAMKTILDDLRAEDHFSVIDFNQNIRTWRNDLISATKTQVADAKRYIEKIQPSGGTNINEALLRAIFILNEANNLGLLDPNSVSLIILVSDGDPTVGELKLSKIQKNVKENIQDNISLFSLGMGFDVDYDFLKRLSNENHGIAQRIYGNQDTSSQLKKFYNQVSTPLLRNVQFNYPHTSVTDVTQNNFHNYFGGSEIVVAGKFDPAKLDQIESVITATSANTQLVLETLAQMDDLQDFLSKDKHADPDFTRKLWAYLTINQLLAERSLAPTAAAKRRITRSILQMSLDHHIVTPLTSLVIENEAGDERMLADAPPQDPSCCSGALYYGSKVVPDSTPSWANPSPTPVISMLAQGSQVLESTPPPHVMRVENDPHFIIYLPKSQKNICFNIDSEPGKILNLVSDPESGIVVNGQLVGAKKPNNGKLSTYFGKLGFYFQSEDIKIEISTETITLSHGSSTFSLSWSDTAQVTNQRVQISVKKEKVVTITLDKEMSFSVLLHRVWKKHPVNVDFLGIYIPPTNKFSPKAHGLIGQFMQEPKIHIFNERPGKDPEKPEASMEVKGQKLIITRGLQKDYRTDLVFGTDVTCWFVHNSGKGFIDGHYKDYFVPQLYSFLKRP
UniProt Q9NZM3: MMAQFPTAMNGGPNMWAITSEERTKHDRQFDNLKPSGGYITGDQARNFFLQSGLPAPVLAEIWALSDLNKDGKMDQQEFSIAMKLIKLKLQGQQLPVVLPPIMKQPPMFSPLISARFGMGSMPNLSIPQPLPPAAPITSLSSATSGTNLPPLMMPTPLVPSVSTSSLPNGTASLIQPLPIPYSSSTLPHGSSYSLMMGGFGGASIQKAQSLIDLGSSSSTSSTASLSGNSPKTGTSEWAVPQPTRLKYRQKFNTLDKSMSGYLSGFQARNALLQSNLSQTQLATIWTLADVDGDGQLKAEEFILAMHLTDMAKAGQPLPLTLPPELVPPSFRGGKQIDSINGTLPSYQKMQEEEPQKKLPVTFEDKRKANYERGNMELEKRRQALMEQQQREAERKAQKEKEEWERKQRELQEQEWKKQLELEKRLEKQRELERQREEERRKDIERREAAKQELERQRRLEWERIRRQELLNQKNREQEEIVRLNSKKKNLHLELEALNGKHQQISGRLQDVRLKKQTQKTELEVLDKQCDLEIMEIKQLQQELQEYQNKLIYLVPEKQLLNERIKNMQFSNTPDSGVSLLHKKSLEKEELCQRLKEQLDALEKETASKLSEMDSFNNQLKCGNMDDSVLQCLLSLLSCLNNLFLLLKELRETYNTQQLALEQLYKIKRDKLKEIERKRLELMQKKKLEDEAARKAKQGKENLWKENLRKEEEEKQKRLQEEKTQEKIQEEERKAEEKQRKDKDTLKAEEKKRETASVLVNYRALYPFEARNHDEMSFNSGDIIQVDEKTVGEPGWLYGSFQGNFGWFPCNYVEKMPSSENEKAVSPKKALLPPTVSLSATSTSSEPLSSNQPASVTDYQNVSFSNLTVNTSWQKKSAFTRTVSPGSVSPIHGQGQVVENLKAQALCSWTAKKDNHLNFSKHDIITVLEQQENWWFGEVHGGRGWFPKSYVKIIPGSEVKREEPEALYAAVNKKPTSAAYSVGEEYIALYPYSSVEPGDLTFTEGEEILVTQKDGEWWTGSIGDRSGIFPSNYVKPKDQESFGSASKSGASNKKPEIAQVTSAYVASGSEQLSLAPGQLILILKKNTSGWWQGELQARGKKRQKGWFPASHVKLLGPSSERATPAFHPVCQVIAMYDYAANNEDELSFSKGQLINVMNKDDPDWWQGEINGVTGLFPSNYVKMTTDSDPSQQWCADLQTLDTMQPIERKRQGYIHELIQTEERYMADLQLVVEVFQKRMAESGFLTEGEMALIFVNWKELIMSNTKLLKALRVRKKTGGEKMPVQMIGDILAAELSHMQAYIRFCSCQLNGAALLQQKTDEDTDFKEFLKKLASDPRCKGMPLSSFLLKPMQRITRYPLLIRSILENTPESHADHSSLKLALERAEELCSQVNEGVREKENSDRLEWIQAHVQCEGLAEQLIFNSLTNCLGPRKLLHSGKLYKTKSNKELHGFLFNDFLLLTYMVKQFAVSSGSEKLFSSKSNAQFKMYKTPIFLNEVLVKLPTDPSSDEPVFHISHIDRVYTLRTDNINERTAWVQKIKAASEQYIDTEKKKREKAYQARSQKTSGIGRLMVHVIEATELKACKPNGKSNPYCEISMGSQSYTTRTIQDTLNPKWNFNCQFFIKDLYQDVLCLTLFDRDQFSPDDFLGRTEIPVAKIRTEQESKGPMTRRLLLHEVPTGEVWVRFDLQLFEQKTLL
UniProt Q92830, whole entry, looked up: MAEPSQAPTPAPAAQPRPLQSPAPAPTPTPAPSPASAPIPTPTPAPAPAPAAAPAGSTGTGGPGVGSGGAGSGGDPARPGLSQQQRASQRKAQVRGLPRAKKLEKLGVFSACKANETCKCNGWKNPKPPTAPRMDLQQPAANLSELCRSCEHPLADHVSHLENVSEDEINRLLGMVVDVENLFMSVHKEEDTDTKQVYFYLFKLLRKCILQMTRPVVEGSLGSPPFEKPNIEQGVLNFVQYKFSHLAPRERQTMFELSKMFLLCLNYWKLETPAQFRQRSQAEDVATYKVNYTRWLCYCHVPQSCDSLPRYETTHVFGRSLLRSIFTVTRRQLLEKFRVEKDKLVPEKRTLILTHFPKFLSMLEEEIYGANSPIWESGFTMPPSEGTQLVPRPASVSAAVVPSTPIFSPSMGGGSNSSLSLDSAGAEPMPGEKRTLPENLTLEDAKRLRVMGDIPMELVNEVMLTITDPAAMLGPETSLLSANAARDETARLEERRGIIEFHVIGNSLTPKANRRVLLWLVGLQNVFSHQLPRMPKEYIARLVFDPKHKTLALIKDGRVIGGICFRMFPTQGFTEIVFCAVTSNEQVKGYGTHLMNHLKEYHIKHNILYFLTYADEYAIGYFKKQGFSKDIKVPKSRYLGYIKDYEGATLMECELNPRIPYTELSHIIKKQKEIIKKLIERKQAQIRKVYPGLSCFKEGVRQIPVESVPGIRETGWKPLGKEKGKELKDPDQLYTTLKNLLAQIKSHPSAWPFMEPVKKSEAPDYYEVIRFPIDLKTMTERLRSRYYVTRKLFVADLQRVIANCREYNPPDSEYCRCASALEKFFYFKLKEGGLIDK
UniProt Q8N5M9: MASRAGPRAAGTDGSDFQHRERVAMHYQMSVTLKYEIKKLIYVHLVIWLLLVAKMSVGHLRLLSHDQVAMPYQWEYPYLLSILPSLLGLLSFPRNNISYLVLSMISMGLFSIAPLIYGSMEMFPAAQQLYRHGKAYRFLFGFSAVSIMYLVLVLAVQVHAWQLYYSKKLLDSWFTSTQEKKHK
UniProt Q63ZY3: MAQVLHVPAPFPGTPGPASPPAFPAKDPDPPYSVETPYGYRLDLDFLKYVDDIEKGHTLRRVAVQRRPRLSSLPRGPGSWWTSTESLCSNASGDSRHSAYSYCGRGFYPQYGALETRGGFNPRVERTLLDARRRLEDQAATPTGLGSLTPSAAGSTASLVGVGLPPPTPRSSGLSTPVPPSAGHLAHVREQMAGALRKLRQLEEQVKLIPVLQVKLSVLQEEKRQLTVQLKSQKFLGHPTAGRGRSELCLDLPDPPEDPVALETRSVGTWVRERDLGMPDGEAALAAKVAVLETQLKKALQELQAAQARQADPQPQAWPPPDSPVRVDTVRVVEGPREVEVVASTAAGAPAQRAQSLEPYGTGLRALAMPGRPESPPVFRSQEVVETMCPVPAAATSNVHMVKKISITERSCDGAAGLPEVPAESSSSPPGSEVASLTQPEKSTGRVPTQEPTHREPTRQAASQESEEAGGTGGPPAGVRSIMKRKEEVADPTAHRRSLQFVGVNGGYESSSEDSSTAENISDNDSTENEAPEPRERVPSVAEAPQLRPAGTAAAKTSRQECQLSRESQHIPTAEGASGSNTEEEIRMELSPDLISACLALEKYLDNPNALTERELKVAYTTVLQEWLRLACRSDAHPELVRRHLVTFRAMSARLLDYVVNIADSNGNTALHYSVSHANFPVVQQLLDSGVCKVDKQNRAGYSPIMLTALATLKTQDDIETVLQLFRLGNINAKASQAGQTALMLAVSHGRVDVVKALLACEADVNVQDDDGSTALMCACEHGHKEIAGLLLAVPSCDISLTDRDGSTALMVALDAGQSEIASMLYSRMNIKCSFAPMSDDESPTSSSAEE
UniProt Q7L273: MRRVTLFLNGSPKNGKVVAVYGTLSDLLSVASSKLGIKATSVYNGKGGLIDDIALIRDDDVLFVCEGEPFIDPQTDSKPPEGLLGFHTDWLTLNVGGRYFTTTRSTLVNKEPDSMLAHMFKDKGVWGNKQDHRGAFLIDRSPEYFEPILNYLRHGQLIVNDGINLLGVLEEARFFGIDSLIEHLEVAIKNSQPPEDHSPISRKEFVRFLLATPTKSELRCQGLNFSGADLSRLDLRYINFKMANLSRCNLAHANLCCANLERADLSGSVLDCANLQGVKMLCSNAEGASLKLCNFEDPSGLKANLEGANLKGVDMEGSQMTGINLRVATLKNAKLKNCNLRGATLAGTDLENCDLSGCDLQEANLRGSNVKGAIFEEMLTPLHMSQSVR
UniProt P38570: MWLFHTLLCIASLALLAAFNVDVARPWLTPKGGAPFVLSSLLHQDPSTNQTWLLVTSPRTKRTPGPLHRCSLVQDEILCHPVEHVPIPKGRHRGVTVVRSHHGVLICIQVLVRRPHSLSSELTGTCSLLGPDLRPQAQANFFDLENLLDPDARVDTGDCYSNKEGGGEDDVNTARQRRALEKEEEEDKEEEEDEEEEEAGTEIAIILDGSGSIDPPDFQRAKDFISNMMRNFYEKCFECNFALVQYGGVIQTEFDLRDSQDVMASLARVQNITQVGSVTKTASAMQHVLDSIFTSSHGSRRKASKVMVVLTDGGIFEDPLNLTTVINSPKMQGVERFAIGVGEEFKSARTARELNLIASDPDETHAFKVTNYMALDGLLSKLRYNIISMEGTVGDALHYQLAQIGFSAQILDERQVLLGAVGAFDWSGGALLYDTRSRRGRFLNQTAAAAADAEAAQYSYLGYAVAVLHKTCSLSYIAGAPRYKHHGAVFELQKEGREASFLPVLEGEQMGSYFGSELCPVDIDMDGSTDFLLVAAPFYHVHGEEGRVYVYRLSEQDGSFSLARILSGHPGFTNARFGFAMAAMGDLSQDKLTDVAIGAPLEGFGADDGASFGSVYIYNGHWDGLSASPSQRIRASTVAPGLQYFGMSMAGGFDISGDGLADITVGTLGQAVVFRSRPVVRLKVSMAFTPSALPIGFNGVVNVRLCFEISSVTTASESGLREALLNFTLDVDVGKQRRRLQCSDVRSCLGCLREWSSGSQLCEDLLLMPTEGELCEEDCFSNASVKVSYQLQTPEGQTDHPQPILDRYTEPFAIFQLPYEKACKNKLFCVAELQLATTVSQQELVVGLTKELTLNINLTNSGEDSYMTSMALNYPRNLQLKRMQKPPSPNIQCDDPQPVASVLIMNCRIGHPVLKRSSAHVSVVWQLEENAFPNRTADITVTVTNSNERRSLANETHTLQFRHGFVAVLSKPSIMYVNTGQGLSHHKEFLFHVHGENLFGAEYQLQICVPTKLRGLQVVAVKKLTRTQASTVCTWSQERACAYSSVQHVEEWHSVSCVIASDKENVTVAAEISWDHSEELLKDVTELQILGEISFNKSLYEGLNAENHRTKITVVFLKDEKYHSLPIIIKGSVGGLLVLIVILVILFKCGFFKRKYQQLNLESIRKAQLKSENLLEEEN

Tubastatin A = compound: CN1CCc2c(c3ccccc3n2Cc2ccc(C(=O)NO)cc2)C1 [Tubastatin A]
Summary of the method: as §1

[1] = compound: CNC(=O)C1=CC=CC=C1NC2=NC(=NC=C2Cl)NC3=C(C=C(C=C3)N4CCOCC4)OC
Summary of the method: as §1

alisertib = compound: COc1cc(Nc2ncc3c(n2)-c2ccc(Cl)cc2C(c2c(F)cccc2OC)=NC3)ccc1C(=O)O [alisertib]
Summary of the method: as §1

[2] = compound: COc1cc2nc(-c3cc(F)ccc3O)nc(N[C@@H]3CNC[C@H]3C(C)(C)O)c2cc1OC
Summary of the method: as §1

gefitinib = compound: COc1cc2ncnc(Nc3ccc(F)c(Cl)c3)c2cc1OCCCN1CCOCC1 [gefitinib]
Summary of the method: as §1

defactinib = compound: CNC(=O)c1ccc(Nc2ncc(C(F)(F)F)c(NCc3nccnc3N(C)S(C)(=O)=O)n2)cc1 [defactinib]
Summary of the method: as §1

[3] = compound: CNc1nc(-c2ccc3c(N)n[nH]c3c2)cc(N2C[C@@H](C(=O)NC3CCCCC3)CC[C@H]2C)n1
Summary of the method: as §1

encorafenib = compound: COC(=O)N[C@@H](C)CNc1nccc(-c2cn(C(C)C)nc2-c2cc(Cl)cc(NS(C)(=O)=O)c2F)n1 [encorafenib]
Summary of the method: as §1

[4] = compound: COC(=O)[C@H](CCSC)NC(=O)C1=C(C=C(C=C1)NC[C@H](CS)N)C2=CC=CC=C2
Summary of the method: as §1

Measured: log2 fold change

KCNN4 (UniProt O15554)
inactive: alvocidib 0.112 | Tubastatin A -0.059 | [1] -0.047 | alisertib -0.335 | [2] 0.292 | gefitinib -0.245

ITPA (UniProt Q9BY32)
inactive: alvocidib -0.049 | Tubastatin A 0.026 | [1] -0.028 | defactinib -0.012 | [3] 0.056 | encorafenib -0.032 | [4] 0.009 | alisertib -0.008 | [2] 0.053 | gefitinib -0.052

KDM3A (UniProt Q9Y4C1)
inactive: alvocidib 0.02 | Tubastatin A -0.037 | [1] -0.031 | defactinib -0.04 | [3] 0.078 | encorafenib 0.007 | [4] 0.035 | alisertib 0.079 | gefitinib -0.046

ITIH2 (UniProt P19823)
inactive: alvocidib -0.002 | Tubastatin A -0.02 | defactinib -0.028 | encorafenib 0.04 | [4] -0.031 | alisertib -0.04 | [2] 0.048 | gefitinib 0.06

ITSN2 (UniProt Q9NZM3)
inactive: alvocidib 0.017 | Tubastatin A -0.06 | [1] -0.029 | defactinib -0.016 | [3] 0.006 | encorafenib -0.021 | [4] 0.062 | alisertib 0.003 | [2] 0.056 | gefitinib -0.001

KAT2A (UniProt Q92830)
inactive: alvocidib -0.009 | Tubastatin A -0.252 | [3] -0.104 | encorafenib 0.055 | [4] 0.257 | alisertib 0.054 | [2] 0.067

JMJD7 (UniProt P0C870)
inactive: alvocidib 0.001 | Tubastatin A -0.047 | [1] 0.125 | [3] -0.095 | encorafenib -0.086 | [4] 0.101 | alisertib 0.04 | [2] -0.047 | gefitinib -0.016

ITPRID2 (UniProt P28290)
inactive: alvocidib -0.048 | Tubastatin A -0.053 | [1] 0.187 | encorafenib 0.073 | [4] -0.017 | alisertib 0.057 | [2] -0.074 | gefitinib -0.095

JAG2 (UniProt Q9Y219)
inactive: alvocidib -0.046 | Tubastatin A 0.007 | [1] 0.093 | [3] -0.058 | encorafenib 0.028 | [4] 0.023 | [2] -0.081

INTS6L (UniProt Q5JSJ4)
inactive: alvocidib 0.011 | Tubastatin A 0.059 | [1] -0.04 | [3] -0.038 | [2] -0.061

JMY (UniProt Q8N9B5)
inactive: alvocidib -0.062 | Tubastatin A 0.132 | [1] -0.008 | [3] 0.087

IPO8 (UniProt O15397)
inactive: alvocidib 0.026 | Tubastatin A -0.017 | [1] -0.015 | defactinib 0.011 | [3] -0.014 | encorafenib 0.018 | [4] 0.103 | alisertib -0.001 | [2] -0.027 | gefitinib -0.004

ITGA2B (UniProt P08514)
inactive: alvocidib -0.044 | Tubastatin A -0.016 | [1] -0.051 | defactinib -0.2 | alisertib -0.122 | [2] 0.054 | gefitinib 0.025

ITPR1 (UniProt Q14643)
inactive: alvocidib -0.044 | Tubastatin A 0.008 | defactinib -0.116 | encorafenib 0.052 | [4] 0.017 | [2] 0.069

JAGN1 (UniProt Q8N5M9)
inactive: alvocidib -0.018 | Tubastatin A 0.062 | [1] 0.032 | defactinib 0.007 | [3] 0.257 | encorafenib 0.054 | [4] -0.161 | alisertib 0.084 | [2] -0.042 | gefitinib -0.059

Two records drawn at random from the list so far:
ITPRID2 (UniProt P28290)
inactive: alvocidib -0.048 | Tubastatin A -0.053 | [1] 0.187 | encorafenib 0.073 | [4] -0.017 | alisertib 0.057 | [2] -0.074 | gefitinib -0.095

ITGA2B (UniProt P08514)
inactive: alvocidib -0.044 | Tubastatin A -0.016 | [1] -0.051 | defactinib -0.2 | alisertib -0.122 | [2] 0.054 | gefitinib 0.025

More entries follow.

KANK2 isoform 2 (UniProt Q63ZY3)
inactive: alvocidib -0.143 | Tubastatin A -0.439 | defactinib 0.022 | [3] 0.307 | encorafenib 0.017 | [4] 0.127 | [2] 0.187

IRGQ (UniProt Q8WZA9)
inactive: alvocidib -0.018 | Tubastatin A 0.02 | [1] 0.012 | defactinib 0.002 | [3] -0.026 | encorafenib 0.003 | [4] 0.02 | alisertib 0.014 | [2] 0.011 | gefitinib -0.025

IQGAP3 (UniProt Q86VI3)
inactive: alvocidib -0.014 | Tubastatin A -0.1 | [1] 0.069 | defactinib -0.196 | [3] -0.036 | alisertib -0.028 | [2] 0.102 | gefitinib -0.009

IRS2 (UniProt Q9Y4H2)
inactive: alvocidib -0.301 | Tubastatin A -0.254 | [1] -0.02 | [3] 0.275 | alisertib 0.068 | [2] 0.004 | gefitinib 0.08

KCTD9 (UniProt Q7L273)
inactive: alvocidib 0.011 | Tubastatin A 0.084 | [1] 0.061 | defactinib 0.026 | [3] 0.008 | encorafenib 0.021 | [4] -0.219 | alisertib -0.016 | [2] -0.003 | gefitinib -0.042

ITGAE (UniProt P38570)
inactive: alvocidib -0.092 | Tubastatin A 0.078 | [1] -0.108 | defactinib -0.165 | encorafenib 0.128 | [4] -0.065 | alisertib -0.07 | [2] 0.154 | gefitinib 0.058

ITPKC (UniProt Q96DU7)
inactive: alvocidib -0.165 | Tubastatin A -0.173 | [1] -0.014 | defactinib 0.098 | [3] -0.103 | encorafenib 0.032 | [4] 0.112 | alisertib -0.025 | gefitinib 0.085

KANSL1 (UniProt Q7Z3B3)
inactive: alvocidib -0.02 | Tubastatin A -0.163 | [1] 0.156 | [3] -0.043 | encorafenib 0.014 | [4] 0.2 | alisertib -0.022 | [2] -0.042 | gefitinib 0.091

ISG15 (UniProt P05161)
inactive: alvocidib 0.047 | Tubastatin A 0.035 | [1] 0 | defactinib 0.008 | [3] 0.001 | encorafenib -0.01 | [4] -0.019 | alisertib 0.023 | [2] -0.058 | gefitinib 0.028

IPO11 isoform 2 (UniProt Q9UI26)
inactive: alvocidib 0.038 | Tubastatin A -0.02 | [1] 0.012 | defactinib 0.005 | [3] 0.009 | encorafenib -0.009 | [4] 0.045 | alisertib -0.012 | [2] 0.006 | gefitinib -0.001

IPO13 (UniProt O94829)
inactive: alvocidib 0.022 | Tubastatin A -0.046 | [1] 0.005 | defactinib 0 | [3] 0.021 | encorafenib 0.016 | [4] 0.009 | alisertib -0.01 | [2] -0.014 | gefitinib 0.024

ISOC2 (UniProt Q96AB3)
inactive: alvocidib 0.004 | Tubastatin A -0.017 | [1] 0.076 | defactinib 0.121 | [3] -0.024 | encorafenib 0.014 | [4] 0.122 | alisertib 0.022 | [2] 0.043 | gefitinib -0.045

ITPR2 (UniProt Q14571)
inactive: Tubastatin A -0.03 | [1] 0.074 | [3] 0.239 | alisertib 0.001 | [2] 0.234 | gefitinib -0.019

KBTBD7 (UniProt Q8WVZ9)
inactive: Tubastatin A 0.053 | [1] -0.084 | defactinib 0.162 | [3] -0.098 | encorafenib -0.061 | [4] 0.219 | [2] 0.036

From the supplement of paper PMC10849652
